Experimental data from PubChem BioAssay AID1439 (NMMLSC, 2008).
The whole screen tested about 220,000 compounds, of which about 770 (0.35%) were called active. The inconclusive results got no clear call from the source; some entries with a clear call stand among them for comparison. No stated cut-off is given here; in the data, active means binding response below about 49% or above about 150%; inconclusive means no clear call, values can overlap the other calls; inactive means in between.

Protein sequences, listed by entry. Tags and fused reporters are not part of them.
UniProt P09471, whole entry, looked up: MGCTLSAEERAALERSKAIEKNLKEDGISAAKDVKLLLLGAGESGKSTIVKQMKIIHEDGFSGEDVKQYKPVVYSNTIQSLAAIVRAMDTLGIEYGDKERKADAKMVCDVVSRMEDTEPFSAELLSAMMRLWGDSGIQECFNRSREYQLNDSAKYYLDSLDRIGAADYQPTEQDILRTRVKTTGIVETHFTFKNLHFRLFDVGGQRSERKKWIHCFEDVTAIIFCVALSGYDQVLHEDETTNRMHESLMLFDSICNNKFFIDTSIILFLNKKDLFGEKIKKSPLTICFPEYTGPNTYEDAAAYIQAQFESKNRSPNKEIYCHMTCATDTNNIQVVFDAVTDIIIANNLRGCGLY

The compounds below were run against Guanine nucleotide-binding protein G(o) subunit alpha (Homo sapiens) (UniProt P09471) (assay: RGS7-Galphao binding modulators, primary screen, biochemical, multiplexed bead flow cytometry (AID 1439;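 further: fluorescent Galphao held in activated GDP-AlF4 state binding bead-coupled RGS7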)). Conditions: at 10 µM, actives lie on both sides.

Row | SMILES | binding response (% of control)
1 | CC(=O)Nc1ccc(S(=O)(=O)N(C)CC(=O)OCC(=O)Nc2cccnc2Cl)cc1 | inactive: 103%
2 | O=C(OCC1O[C@@H](OC(=O)c2cc(O)c(O)c(O)c2)[C@@H](OC(=O)c2cc(O)c(O)c(O)c2)[C@@H](OC(=O)c2cc(O)c(O)c(O)c2)[C@@H]1OC(=O)c1cc(O)c(O)c(O)c1)c1cc(O)c(O)c(O)c1 (some centres not stated) | active: 20.5%
3 | COc1ccc(-c2nnn(CC(=O)N3CCOCC3)n2)cc1 | inactive: 118%
4 | Cc1ccc(-c2nn(-c3ccccc3)cc2C(=O)N2CCN(c3ccccn3)CC2)cc1 | inconclusive: 92.2%
5 | COc1ccc2cc3cc(C(=O)NCCN4CCN(c5ccccc5F)CC4)oc3nc2c1 | inactive: 99.8%
6 | COc1ccc(NC(=O)Nc2nnc(N3CCC(C)CC3)s2)cc1OC | inactive: 106%
7 | CCN1CCN(c2c(C(=O)c3ccc(OC)cc3)cnc3ccccc23)CC1 | inconclusive: 99.8%
8 | Cc1cc(C)c2oc(C(=O)N(Cc3ccccc3)c3ccccn3)cc(=O)c2c1 | inconclusive: 87.8%
9 | COc1ccccc1NC(=S)NC(C)=O | inactive: 102%
10 | COc1ccc(N=C2SC(C(N)=O)CC(=O)N2Cc2ccc3c(c2)OCO3)cc1 (configuration not stated) | inconclusive: -315%
11 | NC(=NC(=O)c1ccccc1)N1N=CCC1c1ccccc1 (configuration not stated) | inconclusive: 100%
12 | Cc1nc2ccccc2c(=O)n1/N=C/c1cccs1 | inconclusive: 132%
13 | CCOC(=O)c1cnc2c(cnn2C)c1Cl | inconclusive: 80%
14 | Cc1ccc(S(=O)(=O)N(C)c2ccc3ccccc3c2)cc1 | inconclusive: 105%
15 | COc1ccc(S(=O)(=O)N(CCC#N)Cc2ccco2)cc1OC | inconclusive: 132%
16 | COc1ccccc1NC(=O)CSc1nnc2ccc(-c3cccnc3)nn12 | inconclusive: 106%
17 | Cc1cc(C)n(-c2ccccc2C#N)n1 | inconclusive: 200%
18 | CCC(=O)N1CCN(c2ccc(NC(=O)c3ccc([N+](=O)[O-])o3)cc2)CC1 | inconclusive: 90%
19 | O=C(CSc1nc(-c2ccccc2)c(-c2ccccc2)o1)NC1CCS(=O)(=O)C1 (configuration not stated) | inconclusive: 85.3%
20 | CCN1C(=O)S/C(=C/c2cn(C)c3ccccc23)C1=O | inactive: 98%
21 | COc1ccc(OC)c(CN2CCN(Cc3cccc4ccccc34)CC2)c1 | inconclusive: 96.4%
22 | C/C(=N\NC(=O)c1n[nH]c2c1CCC2)c1cccs1 | inconclusive: 57.1%

Row | SMILES | binding response (% of control)
23 | COc1cc(NC(=O)Nc2ccc(Cl)c(Cl)c2)c(C(=O)O)cc1OC | inconclusive: 64%
24 | CC1CC(=O)Nc2ccccc2N1S(=O)(=O)c1cccc(F)c1 (configuration not stated) | inconclusive: 20%
25 | CC1(C)OC(=O)C(=CNCCc2ccc(O)cc2)C(=O)O1 | inconclusive: 103%
26 | CC(C)(C)NC(=O)CSc1nc(-c2ccccc2)cc(=O)[nH]1 | inconclusive: 93.5%
27 | O=C(OCC(=O)N1CCc2ccccc21)c1ccccn1 | inactive: 90.3%
28 | CCOc1ccc(OCc2ccc(C(=O)NN)o2)cc1 | inconclusive: 77.5%
29 | O=C(N/N=C/c1ccc([N+](=O)[O-])o1)c1cc2ccccc2o1 | inconclusive: 84.7%
30 | CC(C)CCNC(=O)C1CC(c2ccccc2C(F)(F)F)=NO1 (configuration not stated) | inconclusive: 119%
31 | CN(C)S(=O)(=O)c1ccc(Cl)c(NC(=O)COC(=O)CCC(=O)c2cccs2)c1 | inconclusive: 59.8%
32 | COc1ccc(/C(C)=N/OCC(=O)N2CC3(C)CC2CC(C)(C)C3)cc1 (configuration not stated) | active: 276% [activator]
33 | NC1=NC[C@H](Cc2ccc(O)cc2)N1CCC12CC3CC(CC(C3)C1)C2 | inconclusive: 120%
34 | CN(C(=O)Nc1ccccc1)C1CCCCC1 | inconclusive: 59.4%
35 | COC(=O)c1sccc1NC(=O)c1c(C)noc1C | inactive: 97%
36 | CN(Cc1ccccc1)c1c([N+](=O)[O-])c(=O)n(C)c2ccccc12 | inconclusive: 431%
37 | Cc1nnc(SCC(=O)c2ccccc2F)n1Cc1ccccc1 | inconclusive: 91.9%
38 | Cn1cc(/C=N/NC(=O)c2ccc(C#N)cc2F)c2ccccc21 | inconclusive: 56.9%
39 | O=C1NC[C@H](Cc2ccc(O)cc2)N(CCc2cccc3ccccc23)C1=O | inconclusive: 127%
40 | COc1ccc(-n2nc(C(=O)NCC(=O)N3CCN(c4ccccn4)CC3)c3ccccc3c2=O)cc1OC | inconclusive: 108%
41 | CN(c1ccccc1)S(=O)(=O)c1cccc(C(=O)NCCc2ccc(O)c(O)c2)c1 | inconclusive: 77.8%
42 | Cc1c(C(=O)c2ccc(F)cc2)c2ccccn2c1CCc1ccccn1 | inconclusive: 103%
43 | Cc1ccc(-c2cc(C(=O)Nc3cccnc3)[nH]n2)c(O)c1C | inconclusive: 104%
44 | CCNC(=S)Nc1cc(OCC)c(NC(=O)c2cccs2)cc1OCC | active: 36.1%

Structural class: the entries above with a furan ring, fused or not
Row | SMILES | binding response (% of control)
5 | COc1ccc2cc3cc(C(=O)NCCN4CCN(c5ccccc5F)CC4)oc3nc2c1 | inactive: 99.8%
15 | COc1ccc(S(=O)(=O)N(CCC#N)Cc2ccco2)cc1OC | inconclusive: 132%
18 | CCC(=O)N1CCN(c2ccc(NC(=O)c3ccc([N+](=O)[O-])o3)cc2)CC1 | inconclusive: 90%
28 | CCOc1ccc(OCc2ccc(C(=O)NN)o2)cc1 | inconclusive: 77.5%
29 | O=C(N/N=C/c1ccc([N+](=O)[O-])o1)c1cc2ccccc2o1 | inconclusive: 84.7%

(next part)

Row | SMILES | binding response (% of control)
45 | C/C(=N/NC(=O)CN1CCN(Cc2ccccc2Cl)CC1)c1ccco1 | inconclusive: 112%
46 | Cc1ccc(Cl)cc1NC(=S)NCc1cccn1C | inactive: 94.6%
47 | CCCCn1c(SCC(=O)NC2CC(C)(C)NC(C)(C)C2)nc2cc(S(N)(=O)=O)ccc21 | inconclusive: 114%
48 | COc1ccc(-c2ccc(OC)c([C@H]3[C@@H]4C=CCC[C@@]4(C)C(=O)N3Cc3ccccc3)c2)cc1OC | inconclusive: 123%
49 | O=C(CCn1nnc2ccccc2c1=O)N[C@@H](Cc1c[nH]c2ccccc12)C(=O)O | inconclusive: 60.8%
50 | Cc1ccc2cc(C)c3nnc(SCC(=O)Nc4nc5c(s4)CCCC5)n3c2c1C | inactive: 105%
51 | CCOc1cccc(CNCCSc2nnnn2C)c1 | inactive: 97.1%
52 | Cc1cc(C)nc(/N=C2\NC(=O)CC(C(=O)O)N2c2ccc(Cl)cc2Cl)n1 (configuration not stated) | active: 170% [activator]
53 | COc1cccc(CNc2nc3nc(C)c(Cl)c(=O)n3[nH]2)c1 | inconclusive: 84.5%
54 | Cn1c(=O)c2c(ncn2CC(=O)Nc2nc(-c3ccc(F)c(F)c3)cs2)n(C)c1=O | inconclusive: 109%
55 | Cc1c(O)ccc2c3c(c(=O)oc12)CCCC3 | inactive: 96.1%
56 | CC(C)CCN(CCC(C)C)C(=O)Cc1c(O)c2ccccc2[nH]c1=O | inconclusive: 93.7%
57 | O=[N+]([O-])c1cc(S(=O)(=O)Nc2cccc(Cl)c2)ccc1N/N=C/c1ccc(N2CCOCC2)cc1 | inconclusive: 83.4%
58 | CCn1c(CSc2nnc(-c3ccncc3)n2C)nc2cc(C(=O)O)ccc21 | inconclusive: 106%
59 | COc1ccc(C(=O)NCc2nnc(SCC(=O)c3ccccc3)n2C)cc1 | inconclusive: 86.9%
60 | COC(=O)c1cccc(C23CC4(C2)[C@H](CN(Cc2cccnc2)[C@@H]4c2ccccc2)C3c2ccccc2)c1 (some centres not stated) | inconclusive: 107%
61 | CC1CCCCN1CC(=O)Nc1cc(S(=O)(=O)N2CCOCC2)ccc1N1CCCC1 (configuration not stated) | inconclusive: 180%
62 | CCOC(=O)c1nc(Nc2cc(C)cc(C)c2)c2ccccc2n1 | inactive: 99.7%
63 | CCc1c(O)nc(SCC(=O)c2ccccc2)n(-c2ccccc2)c1=O | inconclusive: 70.9%
64 | O=C(Cc1ccccc1)NCC(=O)Nc1cccc(Br)c1 | inactive: 107%
65 | O=C(NCC1CCCO1)c1ccc2c(=O)n(Cc3cccc(Br)c3)c(=S)[nH]c2c1 (configuration not stated) | inactive: 90.2%
66 | Cc1cc2nccc(-c3ccncc3)n2n1 | inconclusive: 99.7%

Row | SMILES | binding response (% of control)
67 | CCNC(=S)N(Cc1ccco1)Cc1cc2cc(OCC)ccc2[nH]c1=O | inactive: 97.1%
68 | CNC(=O)CC1C(=O)N(c2ccc(Cl)cc2)C(=S)N1CCc1ccc(OC)c(OC)c1 (configuration not stated) | inconclusive: 116%
69 | Cc1ccnc(N2CCN(C(=O)CSc3nc4ccccc4nc3N3CCC(C)CC3)CC2)c1 | inactive: 107%
70 | Nc1nc(N2CCN(C(c3ccccc3)c3ccccc3)CC2)n[nH]1 | active: 39.1%
71 | CSc1ccccc1NC(=O)Nc1ccccc1Cl | inconclusive: 99.7%
72 | O=C(CCl)Nc1cc(SCC(O)CO)cc([N+](=O)[O-])c1 (configuration not stated) | inconclusive: 86.6%
73 | Cc1ccc(CN2C3CCCC2CC(NC(=O)c2ccc(C)cc2)C3)cc1 (configuration not stated) | inconclusive: 95%
74 | C[N+](C)(CC#Cc1ccccc1)CC(=O)c1ccc(Cl)cc1 | inactive: 115%
75 | C=CCn1c(=O)[nH]c2cc(C(=O)N3CC=C(c4ccccc4)CC3)ccc2c1=O | inconclusive: 106%
76 | Nc1nc(CCOc2ccc(F)cc2)cs1 | inactive: 95.7%
77 | CCCCN(C)C(=O)Cn1c(=O)oc2cc(S(=O)(=O)N3CC(C)CC(C)C3)ccc21 (configuration not stated) | inconclusive: 94.8%
78 | CCCCn1c(=O)[nH]c(=O)c2c1nc(-c1ccc(OCCC)c(OCC)c1)n2C | inconclusive: 119%
79 | CC(Sc1nnc(-c2cccnc2)n1-c1ccccc1F)C(=O)N1CCCc2ccccc21 (configuration not stated) | inactive: 101%
80 | O=C(COC(=O)c1cc(-c2cccc(Br)c2)nc2ccccc12)NCC1CCCO1 (configuration not stated) | inconclusive: 102%
81 | COc1ccc2cc(C3CC(c4cccs4)=NN3C(C)=O)c(Cl)nc2c1 (configuration not stated) | inconclusive: 127%
82 | COC(=O)c1ccc(/C=N/NC(=S)NCCN2CCOCC2)cc1 | inconclusive: 118%
83 | CC(C)C[C@H](NC(=O)c1nc[nH]c1C(=O)N1CCN(c2ccccc2)CC1)C(=O)OC(C)(C)C | inconclusive: 70.8%
84 | CCN(CC(=O)Nc1ccc([N+](=O)[O-])cc1OC)CC(=O)NC(C)(C)C | inactive: 103%
85 | Nc1cc(C(=O)O)ccc1Nc1ccc(F)c(F)c1 | inactive: 99.3%
86 | O=C(Cc1ccc(O)cc1)NCCNC(=S)NCc1ccccc1 | inconclusive: 132%
87 | COc1ccccc1CNC(=O)c1ccc2c(=O)n(CCCN3CCCC3=O)c(=S)[nH]c2c1 | inactive: 101%
